Data published in PMC7782785, “Outer-membrane-acting peptides and lipid II-targeting antibiotics cooperatively kill Gram-negative pathogens” (Communications Biology, 2021).
Values after ≈ are worked out from the molar mass of the structure shown.

Experiments:
Type in all cases: cell-based
E. faecalis V583 = assay: microbe, parasite or virus in culture; details: Enterococcus faecalis
Description: (§1) MIC tests were performed in triplicate by liquid growth inhibition microdilution assays in sterile polypropylene microtiter plates according to the Clinical and Laboratory Standards Institute (CLSI) guideline for bacteria that grow aerobically. Briefly, the indicator strains were first streaked on the appropriate agar plate, and then single colonies were picked and incubated overnight in liquid broth. The final inoculum of bacteria was 5*10^5 CFU/mL prepared in CAMHB (cationic adjusted Mueller–Hinton broth, Sigma-Aldrich) or CAMHB plus 5% of lysed horse blood (TCS Biosciences, Buckingham, UK) in the case of S. pneumoniae. The antimicrobials were 2-fold serially diluted and 50 µL diluted bacterial suspension was added to each well to make the final volume 100 µL. The microtiter plates and the count plates were incubated at 37 °C for 16–20 h without shaking. Growth inhibition was assessed by measuring the OD600 using a microplate reader (Tecan Infinity F200). The lowest concentration of the antimicrobials that inhibits visible growth of the indicator strain is identified as the MIC value.

S. aureus LMG8224 = assay: microbe, parasite or virus in culture; details: Staphylococcus aureus
Description: as §1

E. faecium LMG16003 = assay: microbe, parasite or virus in culture; details: Enterococcus faecium
Description: as §1

S. pneumoniae R6 = assay: MIC, broth microdilution; details: Streptococcus pneumoniae; S. pneumoniae R6 (Gram-positive); compound alone; CAMHB plus 5% lysed horse blood
Description: as §1

Which results are given for `CN[C@H](CC(C)C)C(=O)N[C@H]1C(=O)N[C@@H](CC(N)=O)C(=O)N[C@H]2C(=O)N[C@H]3C(=O)N[C@H](C(=O)N[C@H](C(=O)O)c4cc(O)cc(O)c4-c4cc3ccc4O)[C@H](O)c3ccc(c(Cl)c3)Oc3cc2cc(c3O[C@@H]2O[C@H](CO)[C@@H](O)[C@H](O)[C@H]2O[C@H]2C[C@](C)(N)[C@H](O)[C@H](C)O2)Oc2ccc(cc2Cl)[C@H]1O` [Vancomycin]?
MIC (E. faecalis V583): 4.13 µM (≈ 5.99 µg/mL); MIC (S. aureus LMG8224): 1.37 µM (≈ 1.99 µg/mL); MIC (E. faecium LMG16003): > 85 µM; MIC (S. pneumoniae R6): 0.34 µM
